The values that follow come from article PMC4560765.

Amino acid sequences for entries named in this document (tags omitted). Residues count along the entry.
UniProt P01135, residues 24-160: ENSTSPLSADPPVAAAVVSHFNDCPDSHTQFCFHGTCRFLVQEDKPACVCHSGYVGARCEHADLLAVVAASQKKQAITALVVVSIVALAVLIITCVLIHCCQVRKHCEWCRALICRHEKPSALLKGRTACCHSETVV

The target in the assay is T1, RHBDD1 with FLAG and SBP epitopes knocked in at the COOH terminus (endogenous locus, HCT116) (human (endogenous in HCT116)) (UniProt Q8TEB9).
T1 sequence: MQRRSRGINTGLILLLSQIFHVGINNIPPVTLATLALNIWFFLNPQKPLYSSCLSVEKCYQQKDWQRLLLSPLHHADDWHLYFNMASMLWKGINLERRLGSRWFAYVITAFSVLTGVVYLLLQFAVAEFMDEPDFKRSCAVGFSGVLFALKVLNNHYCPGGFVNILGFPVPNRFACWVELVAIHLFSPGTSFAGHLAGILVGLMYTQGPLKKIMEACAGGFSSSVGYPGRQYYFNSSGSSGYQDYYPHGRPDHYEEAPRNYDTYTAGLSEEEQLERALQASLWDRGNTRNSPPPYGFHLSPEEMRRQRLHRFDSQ
The experiment in a line: affinity purification with mass spectrometry; targeted knock-in HCT116 cells lysed in 50 mM Tris-HCl pH 7.4, 100 mM NaCl, 0.5% NP-40, 1 mM EDTA; anti-FLAG M2 affinity gel; SDS-PAGE, silver stain, differential bands analysed by LC-MS/MS.

No constants are given. Whether binding was seen depends on the method and setting. In cells and extracts the contact can be indirect. A yes stands for co-enrichment or nearness to the bait. Other partners may have been found. Sequences can lack the tags named with a protein.

For the substance “endogenous proTGFα (from UniProt P01135 24-160) (ligand)”, the binding entry is “binds”.
